Experimental findings from the supplement of paper PMC12819154, “High-throughput peptide-centric local stability assay extends protein–ligand identification to membrane proteins, tissues and bacteria” (Nature Structural & Molecular Biology, 2025) are described below.

Chains of the proteins cited; added tags and fusions are not shown. Lines headed by an entry give the natural chain unless they say otherwise; changes in a name come on top.
UniProt Q9NZW5: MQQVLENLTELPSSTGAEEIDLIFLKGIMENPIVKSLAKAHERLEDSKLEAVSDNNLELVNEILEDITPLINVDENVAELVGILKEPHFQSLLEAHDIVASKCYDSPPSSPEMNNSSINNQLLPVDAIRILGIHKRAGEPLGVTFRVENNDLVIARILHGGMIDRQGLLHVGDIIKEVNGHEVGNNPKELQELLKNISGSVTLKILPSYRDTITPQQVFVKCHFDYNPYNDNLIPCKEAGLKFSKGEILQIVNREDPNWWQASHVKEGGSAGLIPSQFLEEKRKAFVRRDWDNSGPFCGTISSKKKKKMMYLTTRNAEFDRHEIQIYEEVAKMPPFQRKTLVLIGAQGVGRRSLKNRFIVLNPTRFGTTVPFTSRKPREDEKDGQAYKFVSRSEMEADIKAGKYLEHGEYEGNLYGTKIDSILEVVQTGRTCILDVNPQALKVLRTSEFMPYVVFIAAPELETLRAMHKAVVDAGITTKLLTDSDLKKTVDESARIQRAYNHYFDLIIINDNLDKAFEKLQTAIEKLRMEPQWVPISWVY
UniProt Q9NZC3: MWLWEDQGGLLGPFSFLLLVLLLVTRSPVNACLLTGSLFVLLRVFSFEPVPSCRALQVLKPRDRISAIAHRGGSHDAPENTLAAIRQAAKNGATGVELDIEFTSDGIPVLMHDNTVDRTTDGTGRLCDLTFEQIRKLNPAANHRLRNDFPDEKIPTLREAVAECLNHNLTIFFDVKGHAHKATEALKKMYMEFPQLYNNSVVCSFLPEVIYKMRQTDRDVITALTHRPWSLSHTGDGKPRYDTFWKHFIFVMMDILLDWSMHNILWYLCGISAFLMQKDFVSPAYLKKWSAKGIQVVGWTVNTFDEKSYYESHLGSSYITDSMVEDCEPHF
UniProt Q9UER7, whole entry: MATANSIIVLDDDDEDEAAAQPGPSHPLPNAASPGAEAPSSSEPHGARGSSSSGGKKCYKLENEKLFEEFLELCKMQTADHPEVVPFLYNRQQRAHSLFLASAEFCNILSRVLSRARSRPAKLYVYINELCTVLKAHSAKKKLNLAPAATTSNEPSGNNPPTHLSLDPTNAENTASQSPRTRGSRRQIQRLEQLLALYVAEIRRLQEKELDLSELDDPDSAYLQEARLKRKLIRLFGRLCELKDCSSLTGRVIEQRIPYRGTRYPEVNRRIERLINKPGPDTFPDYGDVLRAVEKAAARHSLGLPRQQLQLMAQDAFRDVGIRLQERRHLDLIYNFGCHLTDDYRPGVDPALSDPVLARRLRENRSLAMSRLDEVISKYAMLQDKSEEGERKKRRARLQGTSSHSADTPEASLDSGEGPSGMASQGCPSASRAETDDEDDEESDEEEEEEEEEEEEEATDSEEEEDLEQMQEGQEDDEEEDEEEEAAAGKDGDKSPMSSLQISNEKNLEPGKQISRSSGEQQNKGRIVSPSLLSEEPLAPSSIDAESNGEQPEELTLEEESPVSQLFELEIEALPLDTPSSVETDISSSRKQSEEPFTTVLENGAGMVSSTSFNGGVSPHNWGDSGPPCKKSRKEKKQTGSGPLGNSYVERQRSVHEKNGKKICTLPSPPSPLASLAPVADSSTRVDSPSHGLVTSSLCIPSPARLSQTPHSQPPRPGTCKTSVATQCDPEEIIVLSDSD
UniProt Q9P278: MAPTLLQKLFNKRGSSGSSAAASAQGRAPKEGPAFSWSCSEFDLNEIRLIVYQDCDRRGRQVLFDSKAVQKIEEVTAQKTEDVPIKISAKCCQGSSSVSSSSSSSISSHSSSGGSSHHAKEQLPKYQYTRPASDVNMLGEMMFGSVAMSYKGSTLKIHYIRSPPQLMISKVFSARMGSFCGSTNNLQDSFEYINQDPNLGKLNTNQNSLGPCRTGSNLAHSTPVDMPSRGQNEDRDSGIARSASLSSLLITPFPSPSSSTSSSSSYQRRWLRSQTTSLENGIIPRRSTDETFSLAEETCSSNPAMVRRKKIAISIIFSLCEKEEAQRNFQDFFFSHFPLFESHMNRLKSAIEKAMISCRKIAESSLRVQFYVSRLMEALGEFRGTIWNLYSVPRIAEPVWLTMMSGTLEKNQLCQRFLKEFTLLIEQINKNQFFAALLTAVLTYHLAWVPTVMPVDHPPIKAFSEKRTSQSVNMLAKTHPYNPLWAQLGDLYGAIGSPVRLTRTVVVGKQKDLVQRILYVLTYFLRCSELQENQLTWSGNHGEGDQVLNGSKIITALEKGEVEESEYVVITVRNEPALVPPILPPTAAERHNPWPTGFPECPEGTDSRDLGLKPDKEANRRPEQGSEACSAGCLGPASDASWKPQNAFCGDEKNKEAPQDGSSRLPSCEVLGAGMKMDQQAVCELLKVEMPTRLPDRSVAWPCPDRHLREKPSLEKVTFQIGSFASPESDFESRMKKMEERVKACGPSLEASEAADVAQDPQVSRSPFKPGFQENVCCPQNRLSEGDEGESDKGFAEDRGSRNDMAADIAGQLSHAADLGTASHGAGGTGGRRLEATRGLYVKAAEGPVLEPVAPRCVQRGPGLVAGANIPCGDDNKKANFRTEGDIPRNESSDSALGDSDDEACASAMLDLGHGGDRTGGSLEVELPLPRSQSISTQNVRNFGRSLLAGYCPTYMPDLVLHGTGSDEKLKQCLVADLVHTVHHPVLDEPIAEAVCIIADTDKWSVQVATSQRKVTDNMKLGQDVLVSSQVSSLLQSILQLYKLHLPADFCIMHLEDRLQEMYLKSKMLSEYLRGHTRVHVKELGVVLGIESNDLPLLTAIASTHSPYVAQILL
UniProt Q9UK59: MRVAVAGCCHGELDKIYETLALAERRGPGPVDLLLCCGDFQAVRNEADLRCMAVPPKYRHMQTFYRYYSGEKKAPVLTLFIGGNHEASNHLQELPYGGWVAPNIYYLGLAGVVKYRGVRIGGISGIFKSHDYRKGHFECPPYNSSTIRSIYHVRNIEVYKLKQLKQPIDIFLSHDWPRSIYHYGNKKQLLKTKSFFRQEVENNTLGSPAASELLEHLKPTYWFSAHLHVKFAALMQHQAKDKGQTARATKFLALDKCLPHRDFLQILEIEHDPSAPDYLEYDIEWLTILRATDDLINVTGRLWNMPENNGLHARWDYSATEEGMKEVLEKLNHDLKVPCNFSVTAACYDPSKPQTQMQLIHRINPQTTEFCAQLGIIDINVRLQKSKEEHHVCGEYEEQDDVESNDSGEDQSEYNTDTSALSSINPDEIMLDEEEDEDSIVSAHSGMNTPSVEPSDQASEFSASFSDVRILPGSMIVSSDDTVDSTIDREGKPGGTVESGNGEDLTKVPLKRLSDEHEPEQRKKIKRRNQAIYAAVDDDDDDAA
UniProt Q9P243: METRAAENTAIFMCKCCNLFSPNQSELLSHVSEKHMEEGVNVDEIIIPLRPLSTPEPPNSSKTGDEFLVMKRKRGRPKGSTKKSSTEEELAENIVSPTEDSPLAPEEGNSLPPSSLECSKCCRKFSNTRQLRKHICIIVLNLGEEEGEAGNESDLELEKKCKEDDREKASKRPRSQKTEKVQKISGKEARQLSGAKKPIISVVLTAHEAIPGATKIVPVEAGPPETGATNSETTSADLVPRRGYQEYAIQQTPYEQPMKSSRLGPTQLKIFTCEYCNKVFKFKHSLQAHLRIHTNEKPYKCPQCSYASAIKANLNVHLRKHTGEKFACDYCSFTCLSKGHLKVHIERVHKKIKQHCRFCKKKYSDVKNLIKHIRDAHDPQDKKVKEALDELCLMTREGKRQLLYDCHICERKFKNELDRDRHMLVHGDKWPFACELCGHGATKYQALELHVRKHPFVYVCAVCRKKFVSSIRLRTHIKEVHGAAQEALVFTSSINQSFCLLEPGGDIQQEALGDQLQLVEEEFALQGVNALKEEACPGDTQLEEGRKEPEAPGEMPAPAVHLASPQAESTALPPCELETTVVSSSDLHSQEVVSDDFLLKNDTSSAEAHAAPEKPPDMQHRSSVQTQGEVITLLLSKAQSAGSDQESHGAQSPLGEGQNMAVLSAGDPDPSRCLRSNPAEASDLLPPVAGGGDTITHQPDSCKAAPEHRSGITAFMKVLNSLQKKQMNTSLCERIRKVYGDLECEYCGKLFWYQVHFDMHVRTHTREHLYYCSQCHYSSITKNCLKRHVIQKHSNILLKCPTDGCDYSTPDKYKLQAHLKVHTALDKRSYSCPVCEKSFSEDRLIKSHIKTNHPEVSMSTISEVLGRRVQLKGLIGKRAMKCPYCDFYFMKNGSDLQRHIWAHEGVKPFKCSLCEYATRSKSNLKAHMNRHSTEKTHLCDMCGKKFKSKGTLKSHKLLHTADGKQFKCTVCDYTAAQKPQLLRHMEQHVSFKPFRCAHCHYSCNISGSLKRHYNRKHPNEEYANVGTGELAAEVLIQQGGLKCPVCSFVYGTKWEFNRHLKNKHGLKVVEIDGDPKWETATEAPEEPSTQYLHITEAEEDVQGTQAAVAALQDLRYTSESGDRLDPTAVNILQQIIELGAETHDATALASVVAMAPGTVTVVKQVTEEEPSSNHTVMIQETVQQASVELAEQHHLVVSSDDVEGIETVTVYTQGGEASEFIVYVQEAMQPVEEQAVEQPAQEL
UniProt Q9UJ04: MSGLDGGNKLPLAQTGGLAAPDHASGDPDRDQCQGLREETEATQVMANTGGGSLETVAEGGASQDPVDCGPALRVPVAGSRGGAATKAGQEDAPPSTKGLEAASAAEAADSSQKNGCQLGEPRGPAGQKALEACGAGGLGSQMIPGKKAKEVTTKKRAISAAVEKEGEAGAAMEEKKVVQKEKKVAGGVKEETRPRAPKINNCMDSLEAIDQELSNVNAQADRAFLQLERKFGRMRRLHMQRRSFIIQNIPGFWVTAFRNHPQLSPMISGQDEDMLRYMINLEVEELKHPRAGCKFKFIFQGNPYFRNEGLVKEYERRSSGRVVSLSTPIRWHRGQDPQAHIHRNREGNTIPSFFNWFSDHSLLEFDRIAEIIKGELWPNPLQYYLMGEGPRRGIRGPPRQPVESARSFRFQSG

Some of the results follow. Small differences around the control level are noise.

Compound in this assay: CN[C@@H]1C[C@H]2O[C@@](C)([C@@H]1OC)n1c3ccccc3c3c4c(c5c6ccccc6n2c5c31)C(=O)NC4 [staurosporine]
Briefly: log2 fold change of tryptic peptide abundance, ligand vs vehicle (limited proteolysis) (log2 ratio); higher = more trypsin-susceptible (destabilized). The settings on record: ligand concentration: 20 uM; sample: K562 cleared lysate; digestion: 4 min, 22 C (HT-PELSA RT4min, Orbitrap Astral).
Take “MPP6 (peptide sequence: EGGSAGLIPSQFLEEKR, peptide start residue: 267) (UniProt Q9NZW5)”: the log2 fold change was 0.902.
The same measure for “GDE1 (peptide sequence: EAVAECLNHNLTIFFDVKGHAHK, peptide start residue: 159) (UniProt Q9NZC3)”: -0.149; for “DAXX (peptide sequence: GTRYPEVNR, peptide start residue: 261) (UniProt Q9UER7)”: 0.497.
The result for “UniProt Q9P278 (peptide sequence: LHLPADFCIMHLEDR, peptide start residue: 1044)” reads -0.387; that for “DBR1 (peptide sequence: ATDDLINVTGR, peptide start residue: 291) (UniProt Q9UK59)”, -1.04; that for “ZFAT (peptide sequence: KPIISVVLTAHEAIPGATK, peptide start residue: 197) (UniProt Q9P243)”, -0.275.
The result for “VPS29 (peptide sequence: LVLVLGDLHIPHR, peptide start residue: 2) (UniProt Q9UBQ0)” reads -0.489; that for “TSPYL4 (peptide sequence: NGCQLGEPR, peptide start residue: 115) (UniProt Q9UJ04)”, 0.483.
